These are yes or no findings as the source states them, for the method shown. Binding seen in cells or lysates may run through a third protein. Some results given as binding are weak or reduced against the parent protein; the word gives no strength. Tags and fused reporters may be left off the sequences shown.

Protein sequences, listed by entry. Tags and fused reporters are not part of them.
UniProt Q8N4A0: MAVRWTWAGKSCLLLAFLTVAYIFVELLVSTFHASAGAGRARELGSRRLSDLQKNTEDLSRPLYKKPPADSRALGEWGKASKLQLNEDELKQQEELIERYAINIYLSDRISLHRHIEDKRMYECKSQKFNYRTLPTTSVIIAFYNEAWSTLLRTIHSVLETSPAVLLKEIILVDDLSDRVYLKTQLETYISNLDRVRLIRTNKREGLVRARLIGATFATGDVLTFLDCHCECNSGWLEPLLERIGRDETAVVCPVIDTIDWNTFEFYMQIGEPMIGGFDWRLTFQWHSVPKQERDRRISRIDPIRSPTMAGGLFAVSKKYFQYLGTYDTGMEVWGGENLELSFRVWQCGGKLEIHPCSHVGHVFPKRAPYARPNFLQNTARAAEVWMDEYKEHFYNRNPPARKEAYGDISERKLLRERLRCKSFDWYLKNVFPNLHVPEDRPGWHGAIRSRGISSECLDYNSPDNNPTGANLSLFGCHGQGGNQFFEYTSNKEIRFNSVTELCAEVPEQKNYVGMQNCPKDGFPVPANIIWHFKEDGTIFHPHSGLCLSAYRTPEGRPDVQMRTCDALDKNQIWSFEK

In this experiment the target is Flag-T4 (Flag-tagged full-length human ppGalNAc-T4) (human) (UniProt Q8N4A0). Description: co-IP; HEK-293T cells co-transfected with Flag-T4 and HA-TβR Ⅰ or HA-TβR Ⅱ; whole cell lysates precipitated with anti-Flag magnetic beads, blotted with anti-HA.

B1: HA-TβR Ⅰ (HA-tagged full-length human TGF-β type Ⅰ receptor), in HEK-293T (receptor, UniProt P36897 34-503)
chain: LQCFCHLCTKDNFTCVTDGLCFVSVTETTDKVIHNSMCIAEIDLIPRDRPFVCAPSSKTGSVTTTYCCNQDHCNKIELPTTVKSSPGLGPVELAAVIAGPVCFVCISLMLMVYICHNRTVIHHRVPNEEDPSLDRPFISEGTTLKDLIYDMTTSGSGSGLPLLVQRTIARTIVLQESIGKGRFGEVWRGKWRGEEVAVKIFSSREERSWFREAEIYQTVMLRHENILGFIAADNKDNGTWTQLWLVSDYHEHGSLFDYLNRYTVTVEGMIKLALSTASGLAHLHMEIVGTQGKPAIAHRDLKSKNILVKKNGTCCIADLGLAVRHDSATDTIDIAPNHRVGTKRYMAPEVLDDSINMKHFESFKRADIYAMGLVFWEIARRCSIGGIHEDYQLPYYDLVPSDPSVEEMRKVVCEQKLRPNIPNRWQSCEALRVMAKIMRECWYANGAARLTALRIKKTLSQLSQQEGIKM
On to B1, for which the binding result is reported as “binds”.
